No constants are given. Whether binding was seen depends on the method and setting. Binding can be weak; no strength is given.
How the values were obtained:
[1] = biological target: murine AA amyloid (amyloid enhancing factor, AEF) (mouse); assay: in vivo, IHC of tissues of p66-treated AA mice
[2] = biological target: murine AA amyloid (amyloid enhancing factor, AEF) (mouse); assay: in vivo, AA mice pre-targeted with p66, IHC and autoradiography
[3] = biological target: murine AA amyloid (amyloid enhancing factor, AEF) (mouse); assay: pulldown with 125I-peptide, mAA liver homogenate, 0.15 M and 1.0 M NaCl
[4] = biological target: murine AA amyloid (amyloid enhancing factor, AEF) (mouse); assay: in vivo, microautoradiography of tissues of AA mice
[5] = biological target: murine AA amyloid (amyloid enhancing factor, AEF) (mouse); assay: EuLISA, peptide added to AEF-coated wells, detected with anti-peptide mAb
[6] = biological target: murine AA amyloid (amyloid enhancing factor, AEF) (mouse); assay: in vivo, IHC of tissues of p5+14-treated AA mice

Measured: binding

B1: peptide p66 (11-1F4 peptope) (peptide)
peptide: KAQKAQAKQAKQAQKAQKAQAKQAKQAQKAQKAQAKQAKQSVTVVTKHYAAFPENLLI
binds: [1] | [2] | [3] | [4]

KAQKAQAKQAKQAQKAQKAQAKQAKQAQKAQKAQAKQAKQ [peptide p5+14]
binds: [3] | [5] | [6]

Reference: US20160243230A1
